The values that follow come from paper PMC4831773.

Chains of the proteins cited; added tags and fusions are not shown. A line that says so, or that is headed by a name, gives the form on record, which may keep a tag or linker.
His-O2 (Opaque2) (Zea mays), one chain, as listed by the source: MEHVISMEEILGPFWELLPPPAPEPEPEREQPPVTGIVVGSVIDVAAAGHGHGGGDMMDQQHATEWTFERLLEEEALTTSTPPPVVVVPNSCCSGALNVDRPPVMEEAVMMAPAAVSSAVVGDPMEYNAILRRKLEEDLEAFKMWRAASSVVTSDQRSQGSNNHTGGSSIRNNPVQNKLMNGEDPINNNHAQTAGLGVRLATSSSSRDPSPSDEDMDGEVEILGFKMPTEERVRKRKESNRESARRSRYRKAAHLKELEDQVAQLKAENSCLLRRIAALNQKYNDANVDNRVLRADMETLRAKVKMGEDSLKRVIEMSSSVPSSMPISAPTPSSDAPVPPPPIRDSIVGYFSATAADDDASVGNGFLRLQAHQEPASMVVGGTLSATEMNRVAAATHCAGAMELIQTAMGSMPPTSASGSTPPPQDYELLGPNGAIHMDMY

The exact form of at least one protein or probe is not confirmed. A negative result means that nothing was seen under these conditions. For some of these results: At least one verdict rests on a figure or table, not on a statement of the authors. For some of these results: A weaker result is weaker than the reference pair of the same experiment.

One data set has as its system His-O2 (Opaque2) (Zea mays). Put plainly: EMSA. To be noted: EMSA: 20 ng protein, 5 ng biotin DNA, 10 mM Tris pH 7.5, 50 mM KCl, 1 mM DTT (1x of 10x buffer), plus glycerol, MgCl2, poly(dI-dC), NP-40; 25 C, 20 min; 8% …; recombinant protein; protein details: His (pET-32a fusion); label: biotin. (In EMSA bound probe runs differently from free probe, usually more slowly.)
With “GCAAATCCTTTGCATGTACGCAAAACTAGCTAGTTGTCACAAGTTGTATA (double strand) [50-1 probe (50kD-1)]”, the binding result is listed as “no binding”.

The data set is the same for the next values; noted with them: preferential site; EMSA: 20 ng protein, 5 ng biotin DNA, 10 mM Tris pH 7.5, 50 mM KCl, 1 mM DTT (1x of 10x buffer), plus glycerol, MgCl2, poly(dI-dC), NP-40; 25 C, 20 min; 8% PAGE; recombinant protein; protein details: His (pET-32a fusion); label: biotin.
Take “AGCAAGAAAAGGACAATAATACTTGACATGTAAAGTGAAGCTTATTATACTTCCTA (double strand) [50-2 probe (50kD-2)]”: the binding result was “binds”.

For a further data set, the target named is His-ZmMADS47 (Zea mays) (UniProt B6TCJ4). As to the kind of experiment: EMSA. Particulars: EMSA: 20 ng protein, 5 ng biotin DNA, 10 mM Tris pH 7.5, 50 mM KCl, 1 mM DTT (1x of 10x buffer), plus glycerol, MgCl2, poly(dI-dC), NP-40; 25 C, 20 min; 8% …; recombinant protein; protein details: His (pET-32a fusion); label: biotin.
As for “ATATTATTGAGACCAACTAGCAACATAGAAAGCACAATAGTGTACCAACA (double strand) [z1A probe 8]”, the binding result was “no binding”.

On to “CACACCATTGTCACCCATGCGTTTGGACAA (double strand) [Z2-Mu5]”, for which the binding result is “no binding”. The same measure, in the same setting: the value for “CATATGTGGCTATCGTTACACATGTGTAAA (double strand) [probe 2-1 (S2 Table: 19kD 7-2)]” was “binds”; that for “ATCACTAAATGTCAAAACCAACTAGATACCATGTCATCTCTACCTTATCT (double strand) [z1A probe 5]” was “no binding”; that for “ATTATATCAAGTTTGTCTTGCTTACGTATAAATTATAACCCAACAAAGTA (double strand) [z1A probe 4]” was “no binding”. The same measure, in the same setting: the same measure for “CACACCATTGTCACCCACATATTTGGACAA (double strand) [Z2-Mu4]”: “no binding”; for “GAATCGTGCCATGATTTTTTTCTAGTGGAAAATAGCCAAACCAAGCAACA (double strand) [z1A probe 1]”: “no binding”; for “CACACCATTGTCACCTGTGTATTTGGACAA (double strand) [Z2-Mu3]”: “no binding”. Same read-out and setting: the value for “TCACCCATGTATTTGGACAATACCGAGAGGAAAAACCACTTATTTATTGT (double strand) [z1A probe 3]” was “binds”; that for “GACTGAGATGTGTATAAATATCTCTTAAATTAGTAGCTAATATATCGCAC (double strand) [z1A probe 7]” was “no binding”; that for “GGTATTGCATCACACCATTG (double strand) [probe 2-2 (S2 Table: 19kD 7-1)]” was “no binding”. Consider “TACTAATATTCTTTTTGCAAAATCCAAAATTAATCTTGCACAAGCACAAG (double strand) [z1A probe 6]”, for which the binding result is given as “no binding”. In the case of “CATATGTGGCTATCGTTACACATGTGTAAAGGTATTGCATCACACCATTG (double strand) [z1A probe 2]”, the binding result was “binds”. The same measure, in the same setting: the same measure for “TCACCCATGTATTTGGACAATACCGAGAG (double strand) [probe 3-1 (S2 Table: 19kD 6-2)]”: “binds”. With “GAAAAACCACTTATTTATTGT (double strand) [probe 3-2 (S2 Table: 19kD 6-1)]”, the binding result was “no binding”.

The same data set, now with this note: preferential site; EMSA: 20 ng protein, 5 ng biotin DNA, 10 mM Tris pH 7.5, 50 mM KCl, 1 mM DTT (1x of 10x buffer), plus glycerol, MgCl2, poly(dI-dC), NP-40; 25 C, 20 min; 8% PAGE; recombinant protein; protein details: His (pET-32a fusion); label: biotin.
Consider “GCAAATCCTTTGCATGTACGCAAAACTAGCTAGTTGTCACAAGTTGTATA (double strand) [50-1 probe (50kD-1)]”, for which the binding result is given as “binds”.

Still in this data set, the particulars now being: weaker than 50-1; EMSA: 20 ng protein, 5 ng biotin DNA, 10 mM Tris pH 7.5, 50 mM KCl, 1 mM DTT (1x of 10x buffer), plus glycerol, MgCl2, poly(dI-dC), NP-40; 25 C, 20 min; 8% PAGE; recombinant protein; protein details: His (pET-32a fusion); label: biotin.
“AGCAAGAAAAGGACAATAATACTTGACATGTAAAGTGAAGCTTATTATACTTCCTA (double strand) [50-2 probe (50kD-2)]”: the binding result was “binds more weakly”.
